Measurements reported in PubChem BioAssay AID1259308 (NCATS, 2017).

- Test: 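Genes whose loss raises luciferase production in HEK293 cells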 (primary screen)
- System: human HEK293 embryonic kidney cells stably expressing firefly luciferase (HEK-CMV-Luc2-Hygro)
- Reagent: single siRNA against human genes, 0.8 pmol siRNA per well
- Time to read-out: 72 h
- Read-out: 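Reporter luminescence and viable-cell signal on separate replicate plates, given as percent of non-targeting control and median/MAD z-scores, plus per-cell luciferase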
- Reading the numbers: total luciferase, z-score and total luciferase, % of control: higher = more reporter protein produced
- Rule for the call: 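An siRNA counts as active if its total luciferase robust z-score exceeds 3; genes with two or more such siRNAs out of three were retested with fresh siRNAs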
- Meaning of the calls: active = raised luciferase; inactive = no rise
Here is one part, drawn at random, of about 59,000 deposited reagents. Over the whole deposit, about 1,510 (2.6%) are marked active. 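Calls use total luciferase alone and ignore viability, so some active siRNAs may act by altering cell number.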 Reagents against one gene are numbered here. Further read-outs or replicates are left out here. Reagent sequences are not shown.

FABP7 #1 → total luciferase, z-score = 0.716; total luciferase, % of control = 96.1; Outcome = inactive
FABP7 #2 → total luciferase, z-score = 0.154; total luciferase, % of control = 85; Outcome = inactive
FABP7 #3 → total luciferase, z-score = -0.533; total luciferase, % of control = 71.3; Outcome = inactive
APLP2 #1 → total luciferase, z-score = -0.817; total luciferase, % of control = 65.6; Outcome = inactive
APLP2 #2 → total luciferase, z-score = 1.73; total luciferase, % of control = 116; Outcome = inactive
APLP2 #3 → total luciferase, z-score = 0.341; total luciferase, % of control = 88.7; Outcome = inactive
NPR2 #1 → total luciferase, z-score = -2.58; total luciferase, % of control = 30.5; Outcome = inactive
NPR2 #2 → total luciferase, z-score = 0.633; total luciferase, % of control = 94.5; Outcome = inactive
NPR2 #3 → total luciferase, z-score = -0.119; total luciferase, % of control = 79.5; Outcome = inactive
CCDC127 #1 → total luciferase, z-score = -0.312; total luciferase, % of control = 75.7; Outcome = inactive
CCDC127 #2 → total luciferase, z-score = -0.00284; total luciferase, % of control = 81.8; Outcome = inactive
CCDC127 #3 → total luciferase, z-score = 0.367; total luciferase, % of control = 89.2; Outcome = inactive
S100A7 #1 → total luciferase, z-score = 0.386; total luciferase, % of control = 89.6; Outcome = inactive
S100A7 #2 → total luciferase, z-score = 2.19; total luciferase, % of control = 126; Outcome = inactive
S100A7 #3 → total luciferase, z-score = -2.2; total luciferase, % of control = 38.2; Outcome = inactive
NTAQ1 #1 → total luciferase, z-score = 0.681; total luciferase, % of control = 95.4; Outcome = inactive
NTAQ1 #2 → total luciferase, z-score = 0.115; total luciferase, % of control = 84.2; Outcome = inactive
NTAQ1 #3 → total luciferase, z-score = -0.0776; total luciferase, % of control = 80.3; Outcome = inactive
KRT86 #1 → total luciferase, z-score = -1.18; total luciferase, % of control = 58.4; Outcome = inactive
KRT86 #2 → total luciferase, z-score = 0.863; total luciferase, % of control = 99.1; Outcome = inactive
KRT86 #3 → total luciferase, z-score = -0.356; total luciferase, % of control = 74.8; Outcome = inactive
KRT86 #4 → total luciferase, z-score = -0.678; total luciferase, % of control = 68.4; Outcome = inactive
KRT86 #5 → total luciferase, z-score = -1; total luciferase, % of control = 61.9; Outcome = inactive
KRT86 #6 → total luciferase, z-score = 0.236; total luciferase, % of control = 86.6; Outcome = inactive
ARPC4 #1 → total luciferase, z-score = 0.863; total luciferase, % of control = 99.1; Outcome = inactive
ARPC4 #2 → total luciferase, z-score = 3.42; total luciferase, % of control = 150; Outcome = active
ARPC4 #3 → total luciferase, z-score = -0.43; total luciferase, % of control = 73.3; Outcome = inactive
OVOL2 #1 → total luciferase, z-score = -2.39; total luciferase, % of control = 34.4; Outcome = inactive
OVOL2 #2 → total luciferase, z-score = -0.185; total luciferase, % of control = 78.2; Outcome = inactive
OVOL2 #3 → total luciferase, z-score = 0.83; total luciferase, % of control = 98.4; Outcome = inactive
FZD6 #1 → total luciferase, z-score = -1.07; total luciferase, % of control = 60.7; Outcome = inactive
FZD6 #2 → total luciferase, z-score = -0.755; total luciferase, % of control = 66.9; Outcome = inactive
FZD6 #3 → total luciferase, z-score = 0.338; total luciferase, % of control = 88.6; Outcome = inactive

Sorted by “total luciferase, % of control” (low to high): 4 of the entries above
FZD6 #1 → total luciferase, z-score = -1.07; total luciferase, % of control = 60.7; Outcome = inactive
FZD6 #2 → total luciferase, z-score = -0.755; total luciferase, % of control = 66.9; Outcome = inactive
OVOL2 #2 → total luciferase, z-score = -0.185; total luciferase, % of control = 78.2; Outcome = inactive
OVOL2 #3 → total luciferase, z-score = 0.83; total luciferase, % of control = 98.4; Outcome = inactive
